Measured values from PubChem BioAssay AID623959 (National Center for Advancing Translational Sciences (NCATS), 2012).
Fewer than 10 of roughly 1,400 compounds were called active. Another 8% or so got no clear call; they are omitted. The call rests on the fitted dose curve; in most records, active means well fitted curve in the direction sought with a large enough effect; inconclusive means small, poorly fitted or top-dose-only effect, or another doubt; inactive means no such curve, though single readings can be large or run the other way. The list shows a part of the results.

By UniProt entry, the sequences of proteins in these tests, tags left out.
UniProt Q8NER1, whole entry, looked up: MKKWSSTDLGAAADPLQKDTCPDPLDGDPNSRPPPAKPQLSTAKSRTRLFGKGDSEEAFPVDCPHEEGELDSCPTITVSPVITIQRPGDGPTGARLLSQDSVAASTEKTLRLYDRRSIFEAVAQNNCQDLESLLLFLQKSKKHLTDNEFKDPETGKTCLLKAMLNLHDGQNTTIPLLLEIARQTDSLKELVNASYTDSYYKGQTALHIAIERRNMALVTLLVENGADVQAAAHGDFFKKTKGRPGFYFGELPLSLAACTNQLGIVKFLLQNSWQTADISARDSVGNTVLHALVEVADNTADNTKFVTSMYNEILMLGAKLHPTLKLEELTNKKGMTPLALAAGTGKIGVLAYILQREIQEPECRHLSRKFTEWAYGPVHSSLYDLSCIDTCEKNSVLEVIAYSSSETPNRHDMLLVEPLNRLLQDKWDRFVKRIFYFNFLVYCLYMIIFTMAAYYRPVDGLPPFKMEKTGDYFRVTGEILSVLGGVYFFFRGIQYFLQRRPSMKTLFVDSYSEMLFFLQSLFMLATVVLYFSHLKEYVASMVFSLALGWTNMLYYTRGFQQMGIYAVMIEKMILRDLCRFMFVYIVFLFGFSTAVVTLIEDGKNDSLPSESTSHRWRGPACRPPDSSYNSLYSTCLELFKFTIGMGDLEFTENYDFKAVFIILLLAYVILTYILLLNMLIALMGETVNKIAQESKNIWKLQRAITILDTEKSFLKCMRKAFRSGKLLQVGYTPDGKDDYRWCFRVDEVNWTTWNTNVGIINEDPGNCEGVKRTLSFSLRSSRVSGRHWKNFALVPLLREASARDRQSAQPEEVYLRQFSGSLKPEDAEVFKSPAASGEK

Target: Transient receptor potential cation channel subfamily V member 1 (Homo sapiens) (UniProt Q8NER1)
Assay: qHTS Assay for Compounds that Act as Potentiators of the Vanilloid Receptor 1: Hit Validation; further: % of control where 0% means no effect
Conditions: TRPV1-expressing cells, Fluo-8 calcium influx, capsaicin EC20; series mostly up to 42.1 µM; activity change, positive = potentiation: at the top concentration
How it was run: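 Calcium influx via Fluo-8 fluorescence (480/520 nm) on FDSS: 10 s baseline, 3 min compound read, 2 min read after EC20 capsaicin. TRPV1-expressing cells plated 2000/well, grown overnight at 35.5 °C.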

Activity change, positive = potentiation, inactive:
O=C(O)c1ccc(NCc2cccnc2)c([N+](=O)[O-])c1 -4.5%
O=C(Cc1ccccc1)Nc1nc(-c2cccs2)cs1 -36.1%
COc1cccc(CNCc2cc(OC)cc(OC)c2)c1 -4.28%
CC(C)NC(=O)COC(=O)c1ccc(O)cc1 -9.92%
COc1cc(C2c3sc(=O)[nH]c3SC3C4CCC(C4)C23)ccc1O (stereo not given) -3.36%
Brc1ccc2nc(-c3c[nH]c4ccccc34)cn2c1 -4.48%
O=C(N/N=C/c1ccccc1)c1ccc(NC(=O)c2ccc(F)cc2)cc1 -7.18%
CCCCc1ccc(NC(=O)Nc2cccnc2)cc1 -36.5%
CC(C)(C)c1ccc(OCc2ccc(C(=O)NN)o2)cc1 -30.2%
Cc1ccccc1NC(=O)CSc1nnc(Cc2ccccc2)c(=O)n1N -1.47%
CCOc1ccc(NC(=O)c2cccc3ccccc23)cc1 -11.4%
CC1=C(C(=O)OCC2CCCO2)C(c2ccc(C)o2)C2=C(CC(c3ccc(F)cc3)CC2=O)N1 (stereo not given) 3.36%
O=C(Cn1c(NCCCO)nc2ccccc21)c1ccc(Cl)cc1 -7.03%
COc1cc(NC(=S)NCc2ccc(S(N)(=O)=O)cc2)cc(OC)c1 -24.7%
COc1cccc(OCC(=O)Nc2cc(NC(=O)COc3cccc(OC)c3)cc(C(=O)O)c2)c1 4.12%
CC1(c2ccc(OC(F)F)cc2)NC(=O)N(CC(=O)Nc2ccc3[nH]c(=O)[nH]c3c2)C1=O (stereo not given) -0.778%
COc1ccc(S(=O)(=O)N2CCC(NC(=O)c3cccc(F)c3)CC2)cc1 4.05%
COc1ccc(/C=C2/SC(=S)N(NS(=O)(=O)c3ccccc3)C2=O)cc1 -1.57%
Cc1cc(C)c(C(=O)N2CCCC(Nc3ccc(C)c(C)c3)C2)o1 (stereo not given) -38.2%
Cc1nn(C)c(C(=O)Nc2ccc(S(=O)(=O)NC34CC5CC(CC(C5)C3)C4)cc2)c1Br -0.96%
CCN1N=C(c2ccccc2)Cn2c1nc1ccccc12 -40%
O=C(Cc1cccs1)Nc1cccc(-c2nnc(-c3ccco3)o2)c1 -4.78%
O=C1NNC(c2ccccc2)=N/C1=C\c1ccccc1Cl -5%
O=C(Nc1ccc2c(c1)CCC2)c1cccc(F)c1 -37.6%
CCN(CC)c1ccc(/C=N/NS(=O)(=O)c2ccc(CNC(C)=O)cc2)cc1 -7.02%
Cc1cc(C(=O)N2CCCC(C(=O)c3ccc(Oc4ccccc4)cc3)C2)n[nH]1 (stereo not given) -8.31%
c1ccc(CSC2=NNC(c3ccccn3)S2)cc1 (stereo not given) -9.69%
COc1ccc(C(=O)Nc2ccc3ncccc3c2)cc1 -33.5%
Cc1c(/C=C(\C#N)C(=O)NCc2ccccc2)cc(C#N)n1C 2.38%
O=C(C[C@H]1C(=O)N(C2CCCCC2)C[C@@H]1Cc1ccccc1)Nc1ccccc1 -36.6%
COC(=O)c1sccc1NC(=O)c1c(Cl)cccc1Cl -16.2%
CN1CCC(=NNC(=O)CN(c2cccc(Br)c2)S(C)(=O)=O)CC1 -5.86%
Cc1c(=O)n(OCc2ccccc2F)c2ccccc2[n+]1[O-] 0.445%
Cc1sc2ncnc(N)c2c1C -6.4%
Cc1cc(C)cc(Oc2nc3ccccn3c(=O)c2/C=C(\C#N)C(=O)NC2CCS(=O)(=O)C2)c1 (stereo not given) -10.1%
Cc1cnc(NC(=O)c2cc3c(s2)CCCC3)s1 -38.8%
CC(c1ccccc1)C1CC(=O)N(c2ccccc2)C1=O (stereo not given) -7.44%
CCOc1ncccc1C(=O)NCCc1ccc(Cl)cc1 -18.1%
COC(=O)c1cccnc1-n1c(=O)c2cccnc2n(CC(=O)Nc2ccc(Br)cc2)c1=O -4.44%
CC(C)NC(=S)Nc1ccc2nc3n(c(=O)c2c1)CCCCC3 6.34%
CCOC(=O)c1c(NC(=O)COC(=O)c2ccccn2)sc(C(=O)N(C)C)c1C 8.21%
CCCc1nnc(NC(=O)CC(C)c2ccccc2)s1 (stereo not given) -4.64%
CN1CCN(S(=O)(=O)c2ccc(NC(=O)c3ccc(F)cc3)cc2)CC1 -2.3%
COc1cccc(OC)c1C(=O)NCCOc1cc(C)cc(C)c1 3.41%
Cc1cc(C)nc(SC(C)C(=O)O)n1 (stereo not given) -3.04%
O=C(CCCCCn1c(=S)[nH]c2cc3c(cc2c1=O)OCO3)N1CCN(c2ccc(F)cc2)CC1 -8.32%
Cc1ccc(-c2c(C(=O)N/N=C/c3ccoc3)nnn2-c2nonc2N)cc1 -32.2%
CCOc1ccc(Nc2nc(Cc3nnc(SCC(N)=O)o3)cs2)cc1 5.63%
CN(CCc1ccccc1)C1CCCN(S(=O)(=O)CC(F)(F)F)C1 (stereo not given) -8.12%
O=C(COc1ccccc1)NCCS(=O)(=O)N1CCN(c2ccccc2)CC1 -8.44%
CCOc1ccccc1C(=O)Nc1ccc(-n2nncc2C(C)(C)C)cc1 -6.71%
COc1cccc(/C=C/C(=O)OCC(=O)Nc2cc(C(F)(F)F)ccc2Cl)c1 6.89%
CCCc1cc(=O)n2[nH]cc(-c3ccc(Cl)cc3)c2n1 4.52%
CN(/C(=N\S(=O)(=O)c1ccccc1)c1ccccc1)c1ccc(O)cc1 -5.44%
COc1cccc(OC)c1C(=O)Nc1ccc(S(=O)(=O)Nc2ncccn2)cc1 -1.46%

Reprinted from above, 3 compounds:
Activity change, positive = potentiation, inactive:
Cc1cc(C)c(C(=O)N2CCCC(Nc3ccc(C)c(C)c3)C2)o1 (stereo not given) -38.2%
Cc1nn(C)c(C(=O)Nc2ccc(S(=O)(=O)NC34CC5CC(CC(C5)C3)C4)cc2)c1Br -0.96%
CCN1N=C(c2ccccc2)Cn2c1nc1ccccc12 -40%
